Experimental data from publication PMC6686035.

Amino acid sequences for entries named in this document (tags omitted). A change or cut given only in a name is not applied to a line headed by its entry.
UniProt P69913: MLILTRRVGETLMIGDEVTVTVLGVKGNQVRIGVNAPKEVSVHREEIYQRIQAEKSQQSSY

Molecular target: CsrA-His6 (Escherichia coli) (UniProt P69913)
Experiment: competition with a labelled probe
Conditions: unlabeled self competitor, EMSA: 0.5 nM RNA, 10 mM MgCl2, 100 mM KCl, 32.5 ng yeast RNA, 20 mM DTT, 7.5% glycerol, 4 U SUPERasin, 37 C 30 min (pH not stated), recombinant protein, protein details: His6 (C-terminal per name), label: 5'-32P
[1] = probe letters rebuilt from the primers and the genome

“GAAGAUCAUCGUCAGAAUUGACUCCACGAUCACAUUUCGGACCGGCAGAAAGGAAUUAUUCUGCAAACAGUAAUUAUGGUGUUUUGAUUUAUCUUGCACCUCUCCACUUCUGGAUAUAAGGAUAUUAGGU [ftnB EMSA transcript]”: binds [1].

“GGGUGGAAGCGAAGGAGUCAAAAAAUGAAAGGUGAUACUAAAGUUAUAAAUUAUCUCAACAAACUGUUGGGAAAUGAGCUUGU [bfr EMSA transcript]”: binds [1].

“GGGUUAAUUACUGGGACAUAACAUCAAGAGGAUAUGAAAUUAUGAGUACCGC [dps EMSA transcript]”: binds.

The exact form of at least one protein or probe is not confirmed. At least one verdict was read from the data and is not stated in words by the source.
